# Numbering of substitutions follows the chain as printed. The list shows a part of the results.
# Key:
# Conditions in all cases: yeast three-hybrid, YBZ-1, SC-Leu-His + 0.5 mM 3-AT, 4 days
# [1] = biological target: T1, PUM1 PUF domain R3-EWR C935E + R936W + Q939R (Homo sapiens) (UniProt Q14671)
# T1 sequence: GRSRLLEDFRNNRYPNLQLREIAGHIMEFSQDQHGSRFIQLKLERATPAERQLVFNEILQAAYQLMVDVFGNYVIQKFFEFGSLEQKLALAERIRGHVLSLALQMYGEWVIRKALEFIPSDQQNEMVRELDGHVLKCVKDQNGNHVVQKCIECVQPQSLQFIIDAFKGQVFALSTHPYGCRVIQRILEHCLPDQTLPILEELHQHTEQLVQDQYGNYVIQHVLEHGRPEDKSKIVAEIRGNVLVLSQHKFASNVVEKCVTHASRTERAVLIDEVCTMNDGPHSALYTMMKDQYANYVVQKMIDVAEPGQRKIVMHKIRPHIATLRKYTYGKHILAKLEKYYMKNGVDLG
# [2] = biological target: T2, PUM1 PUF domain R3-FRL C935F + Q939L (Homo sapiens) (UniProt Q14671)
# T2 sequence: T1 sequence with E108F, W109R, R112L
# [3] = biological target: T3, PUM1 PUF domain R3-FRR C935F + Q939R (Homo sapiens) (UniProt Q14671)
# T3 sequence: T1 sequence with E108F, W109R
# [4] = biological target: T4, PUM1 PUF domain R3-GCD C935G + R936C + Q939D (Homo sapiens) (UniProt Q14671)
# T4 sequence: T1 sequence with E108G, W109C, R112D
# [5] = biological target: T5, PUM1 PUF domain R3-KPS C935K + R936P + Q939S (Homo sapiens) (UniProt Q14671)
# T5 sequence: T1 sequence with E108K, W109P, R112S
# [6] = biological target: T6, PUM1 PUF domain R3-KSS C935K + R936S + Q939S (Homo sapiens) (UniProt Q14671)
# T6 sequence: T1 sequence with E108K, W109S, R112S
# [7] = biological target: T7, PUM1 PUF domain R3-LRC C935L + Q939C (Homo sapiens) (UniProt Q14671)
# T7 sequence: T1 sequence with E108L, W109R, R112C
# [8] = biological target: T8, PUM1 PUF domain R3-MRW C935M + Q939W (Homo sapiens) (UniProt Q14671)
# T8 sequence: T1 sequence with E108M, W109R, R112W
# [9] = biological target: T9, PUM1 PUF domain R3-QPR C935Q + R936P + Q939R (Homo sapiens) (UniProt Q14671)
# T9 sequence: T1 sequence with E108Q, W109P
# [10] = biological target: T10, PUM1 PUF domain R3-RAR C935R + R936A + Q939R (Homo sapiens) (UniProt Q14671)
# T10 sequence: T1 sequence with E108R, W109A
# [11] = biological target: T11, PUM1 PUF domain R3-RCA C935R + R936C + Q939A (Homo sapiens) (UniProt Q14671)
# T11 sequence: T1 sequence with E108R, W109C, R112A
# [12] = biological target: T12, PUM1 PUF domain R3-RCS C935R + R936C + Q939S (Homo sapiens) (UniProt Q14671)
# T12 sequence: T1 sequence with E108R, W109C, R112S
# [13] = biological target: T13, PUM1 PUF domain R3-RQR C935R + R936Q + Q939R (Homo sapiens) (UniProt Q14671)
# T13 sequence: T1 sequence with E108R, W109Q
# [14] = biological target: T14, PUM1 PUF domain R3-RRP C935R + Q939P (Homo sapiens) (UniProt Q14671)
# T14 sequence: T1 sequence with E108R, W109R, R112P
# [15] = biological target: T15, PUM1 PUF domain R3-RRR C935R + Q939R (Homo sapiens) (UniProt Q14671)
# T15 sequence: T1 sequence with E108R, W109R
# [16] = biological target: T16, PUM1 PUF domain R3-RSY C935R + R936S + Q939Y (Homo sapiens) (UniProt Q14671)
# T16 sequence: T1 sequence with E108R, W109S, R112Y
# [17] = biological target: T17, PUM1 PUF domain R3-TSR C935T + R936S + Q939R (Homo sapiens) (UniProt Q14671)
# T17 sequence: T1 sequence with E108T, W109S
# [18] = biological target: T18, PUM1 PUF domain R3-WWG C935W + R936W + Q939G (Homo sapiens) (UniProt Q14671)
# T18 sequence: T1 sequence with E108W, R112G
# [19] = biological target: T19, PUM1 PUF domain R3-YRW C935Y + Q939W (Homo sapiens) (UniProt Q14671)
# T19 sequence: T1 sequence with E108Y, W109R, R112W
# [20] = biological target: T20, PUM1 PUF domain R3-YWF C935Y + R936W + Q939F (Homo sapiens) (UniProt Q14671)
# T20 sequence: T1 sequence with E108Y, R112F
sequence,measurement,setting,value
GGCUAGAACUAGUGGAUCCCCCGGCGCCCGGCGGCUCGAGCCCGGGUAAGUGUAAAUAGUCUGCAUGCCGCCGGGCGCCAUGCCUGCAGGUCGACUCUAGAAAACAUG,binding signal (log2 enrichment (interaction score)),[1],0.32
same,binding signal (log2 enrichment (interaction score)),[2],0.32
same,binding signal (log2 enrichment (interaction score)),[3],-1.57
same,binding signal (log2 enrichment (interaction score)),[4],0.1
same,binding signal (log2 enrichment (interaction score)),[5],0.41
same,binding signal (log2 enrichment (interaction score)),[6],-0.53
same,binding signal (log2 enrichment (interaction score)),[7],-2.15
same,binding signal (log2 enrichment (interaction score)),[8],0.23
same,binding signal (log2 enrichment (interaction score)),[9],-1.53
same,binding signal (log2 enrichment (interaction score)),[10],-0.68
same,binding signal (log2 enrichment (interaction score)),[11],0.36
same,binding signal (log2 enrichment (interaction score)),[12],0.37
same,binding signal (log2 enrichment (interaction score)),[13],-0.8
same,binding signal (log2 enrichment (interaction score)),[14],0.07
same,binding signal (log2 enrichment (interaction score)),[15],-0.34
same,binding signal (log2 enrichment (interaction score)),[16],-1.01
same,binding signal (log2 enrichment (interaction score)),[17],-0.15
same,binding signal (log2 enrichment (interaction score)),[18],0.11
same,binding signal (log2 enrichment (interaction score)),[19],0.16
same,binding signal (log2 enrichment (interaction score)),[20],0.74

# An excerpt from further up, as a working copy:
sequence,measurement,setting,value
GGCUAGAACUAGUGGAUCCCCCGGCGCCCGGCGGCUCGAGCCCGGGUAAGUGUAAAUAGUCUGCAUGCCGCCGGGCGCCAUGCCUGCAGGUCGACUCUAGAAAACAUG,binding signal (log2 enrichment (interaction score)),[10],-0.68
same,binding signal (log2 enrichment (interaction score)),[11],0.36
same,binding signal (log2 enrichment (interaction score)),[12],0.37
same,binding signal (log2 enrichment (interaction score)),[13],-0.8
same,binding signal (log2 enrichment (interaction score)),[14],0.07

# Reference: paper PMC8384837
